Laboratory results reported in PMC8727931.
These are yes or no findings as the source states them, for the method shown. Some binding calls cover weakened binding; strength is not graded here.

Protein sequences, listed by entry. Tags and fused reporters are not part of them. Lines headed by an entry give the natural chain unless they say otherwise; changes in a name come on top. Chains listed by the source or under a name are the forms on record and can include a tag or linker. Residues count along the entry.
GST-FAM134B (Q9H6L5, residues 451-476): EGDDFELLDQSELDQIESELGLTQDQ
GST-FAM134B L463Q (Q9H6L5, form named): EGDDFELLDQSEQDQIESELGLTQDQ
GST-FAM134B I466Q (Q9H6L5, form named): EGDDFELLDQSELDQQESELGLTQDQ
UniProt Q9DCD6: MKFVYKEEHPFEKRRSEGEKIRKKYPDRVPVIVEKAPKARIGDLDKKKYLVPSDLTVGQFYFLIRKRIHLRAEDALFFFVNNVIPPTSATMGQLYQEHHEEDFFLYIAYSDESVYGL

Experiments:
[1] = target: FAM134B LIR L463Q (SEC-MALS construct) (UniProt Q9H6L5); test: SEC-MALS; Superose 12 10/300GL column; 100 mM NaCl, 50 mM Tris/HCl pH 7.5, 1 mM DTT, 1 mM EDTA; proteins mixed at a 1:1 molar ratio; both purified
GST-FAM134B [2] = target: GST-FAM134B (UniProt Q9H6L5); test: pull-down; competition: 4 uM GST-tagged FAM134B incubated with 4.8 uM His-tagged GABARAP (or its mutants) and 4.8 uM MBP-tagged LC3A (or its mutants) together, 1 h at 4 °C; GSH-Sepharose 4B beads in PBS; Coomassie blue staining; both purified
GST-FAM134B [3] = target: GST-FAM134B (UniProt Q9H6L5); test: pull-down; 1 uM GST-tagged FAM134B or mutants incubated with purified His-tagged GABARAP or MBP-tagged LC3A (or its mutants) 1 h at 4 °C; GSH-Sepharose 4B beads in PBS; Coomassie blue staining; both purified
GST-FAM134B L463Q = GST-FAM134B L463Q (UniProt Q9H6L5); test: as above
GST-FAM134B I466Q = GST-FAM134B I466Q (UniProt Q9H6L5); test: as above

Substance	binding (GST-FAM134B [2])	binding (GST-FAM134B [3])	also measured
GABARAP (recombinant, for ITC, SEC and crystallization) (from UniProt Q9DCD6 1-117)	–	–	binding [1]: binds
His-tagged GABARAP Y25H (from UniProt Q9DCD6 1-117)	binds	–	–
MBP-tagged LC3A K65F (from UniProt Q91VR7 1-121)	–	binds	–
MBP-tagged LC3A H27Y (from UniProt Q91VR7 1-121)	binds	binds	–
MBP-tagged LC3A K30R (from UniProt Q91VR7 1-121)	binds	binds	–
MBP-tagged LC3A H57D (from UniProt Q91VR7 1-121)	–	binds	–
His-tagged GABARAP R28K (from UniProt Q9DCD6 1-117)	binds	–	–
His-tagged GABARAP (from UniProt Q9DCD6 1-117)	binds	binds	binding (GST-FAM134B L463Q): binds; binding (GST-FAM134B I466Q): binds
